# According to patent US10610564B2, “IRGM and precision autophagy controls for antimicrobial and inflammatory disease states and methods of detection of autophagy” (STC.UNM, priority 2015, dated 2020):
# Tested on: autophagy
# Experiment: Autophagy assays identifying autophagy modulators
# Format: cell-based
structure (smiles),measurement,value
CCN(CC)CCOC(=O)C1(C2CCCCC2)CCCCC1 [dicyclomine],activity as autophagy modulator,agonists or inducers of autophagy
